Source: paper PMC3990687
Results are given in words; binding and its absence hold for the method and conditions named. Binding seen in cells or lysates may run through a third protein. Some results given as binding are weak or reduced against the parent protein; the word gives no strength.

Protein sequences, listed by entry. Tags and fused reporters are not part of them.
UniProt Q9UBK9: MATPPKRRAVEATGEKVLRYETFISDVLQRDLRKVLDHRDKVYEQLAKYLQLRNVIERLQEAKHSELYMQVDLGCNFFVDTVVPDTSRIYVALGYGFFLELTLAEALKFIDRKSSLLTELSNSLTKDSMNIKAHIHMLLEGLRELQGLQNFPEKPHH
UniProt P15976: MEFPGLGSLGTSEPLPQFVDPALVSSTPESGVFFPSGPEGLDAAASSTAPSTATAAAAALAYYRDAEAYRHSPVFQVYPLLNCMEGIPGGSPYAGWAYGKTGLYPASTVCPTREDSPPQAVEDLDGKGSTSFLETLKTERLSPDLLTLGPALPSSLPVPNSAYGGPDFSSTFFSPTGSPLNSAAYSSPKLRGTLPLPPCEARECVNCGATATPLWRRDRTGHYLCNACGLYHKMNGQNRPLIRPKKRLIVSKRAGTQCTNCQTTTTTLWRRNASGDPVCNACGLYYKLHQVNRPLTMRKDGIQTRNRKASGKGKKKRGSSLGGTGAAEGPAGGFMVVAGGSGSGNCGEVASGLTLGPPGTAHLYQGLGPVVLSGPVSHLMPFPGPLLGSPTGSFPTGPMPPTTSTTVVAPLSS
UniProt Q92908: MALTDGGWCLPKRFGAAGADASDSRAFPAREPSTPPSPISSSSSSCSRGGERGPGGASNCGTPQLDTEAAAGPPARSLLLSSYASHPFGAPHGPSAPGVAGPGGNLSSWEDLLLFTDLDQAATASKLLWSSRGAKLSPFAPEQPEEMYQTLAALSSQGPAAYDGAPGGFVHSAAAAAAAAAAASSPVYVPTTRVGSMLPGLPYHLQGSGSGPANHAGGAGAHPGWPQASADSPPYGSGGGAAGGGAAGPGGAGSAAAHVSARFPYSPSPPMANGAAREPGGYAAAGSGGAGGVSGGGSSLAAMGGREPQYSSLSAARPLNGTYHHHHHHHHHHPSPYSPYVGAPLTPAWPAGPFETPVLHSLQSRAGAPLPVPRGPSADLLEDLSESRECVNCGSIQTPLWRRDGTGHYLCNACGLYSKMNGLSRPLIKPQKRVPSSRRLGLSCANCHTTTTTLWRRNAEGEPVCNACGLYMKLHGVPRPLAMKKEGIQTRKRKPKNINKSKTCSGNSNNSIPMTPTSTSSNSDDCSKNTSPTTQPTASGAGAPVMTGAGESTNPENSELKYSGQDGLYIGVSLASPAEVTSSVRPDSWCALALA
UniProt P42582: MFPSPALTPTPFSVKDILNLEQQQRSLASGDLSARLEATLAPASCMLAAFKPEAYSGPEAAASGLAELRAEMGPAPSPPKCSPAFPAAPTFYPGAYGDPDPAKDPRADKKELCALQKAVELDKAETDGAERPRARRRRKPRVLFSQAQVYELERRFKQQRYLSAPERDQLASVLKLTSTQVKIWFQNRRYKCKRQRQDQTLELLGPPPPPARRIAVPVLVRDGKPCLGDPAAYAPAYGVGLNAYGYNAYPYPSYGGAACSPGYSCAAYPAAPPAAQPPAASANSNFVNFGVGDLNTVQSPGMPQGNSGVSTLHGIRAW

biological target: full length Art27/GST fusion protein (human) (UniProt Q9UBK9); assay: pull-down; GST fusion or GST immobilised on glutathione sepharose beads, incubated with in vitro translated 35S-labelled protein; 150 mM NaCl, 20 mM Tris-HCl, 0.1% NP-40, 2.5 mg/ml BSA, 10 nM ZnSO4; SDS-PAGE and phosphorimaging; only the target purified

binding, binds:
In vitro translated and 35S radiolabeled GATA-1 (from UniProt P15976 1-413)
In vitro translated and 35S radiolabeled GATA-6 (from UniProt Q92908 1-595)
In vitro translated and 35S radiolabeled Nkx2.5 (from UniProt P42582 1-318)
